This is one part of the list.

Protein sequences, listed by entry. Tags and fused reporters are not part of them.
UniProt Q0JBA9, entry or part of it: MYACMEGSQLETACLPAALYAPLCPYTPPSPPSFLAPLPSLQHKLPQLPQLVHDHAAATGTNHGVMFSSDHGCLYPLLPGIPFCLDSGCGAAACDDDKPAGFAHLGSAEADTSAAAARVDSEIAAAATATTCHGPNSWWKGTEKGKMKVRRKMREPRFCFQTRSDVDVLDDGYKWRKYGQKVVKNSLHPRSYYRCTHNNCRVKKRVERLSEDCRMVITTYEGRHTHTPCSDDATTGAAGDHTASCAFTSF

The target in the assay is OsWRKY34 (Oryza sativa, UniProt Q0JBA9 1-250). The experiment in a line: protein-binding microarray (RPBM); PBS, 2% BSA, 51.3 ng/ul salmon testes DNA, 50 uM zinc acetate, 200 nM TF, 25 C, 1 h; high values mean tight binding. The following applies: protein: recombinant; tags: N-terminal polyhistidine and DsRed monomer fusion (pET32a); label: CyDye5-dUTP incorporated in the synthesized complementary strand; 3' TTTTT single-stranded linker to array surface; dsDNA, one strand shown. The essentials: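 Using Ni–NTA, transcription factors fused N-terminally to polyhistidine and DsRed were purified after expression in E. coli BL21-CodonPlus. These were incubated at 200 nM with a blocked, double-stranded custom Agilent array for 1 h at 25 °C in a buffer containing 50 µM zinc acetate, and the array was washed. The binding signal is per-feature fluorescence intensity (arbitrary units) on an Axon 4000B scanner.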
In the case of “AGATGAAGTTTTTTTTACGTAAAAACGGGGTGGTATTAACCGGAGTCACCTAGTGCAG”, the binding signal was 11800 fluorescence intensity (a.u.).

As to “TCACCGCTGCACTCTCACGCTCACACACATGAGCTCTAGTCGGAGTCACCTAGTGCAG”, the binding signal was 8620 fluorescence intensity (a.u.).

Take “CCGCCGGCGCTTGCTCTCCACCCACCCGCGCTTCTTCGCCCGGAGTCACCTAGTGCAG”: the binding signal was 9040 fluorescence intensity (a.u.).

In the case of “TGGGCGGTTTTGTGAGGGGAAGCTCTAAATTTGGGCGATACGGAGTCACCTAGTGCAG”, the binding signal is 9320 fluorescence intensity (a.u.).

With “ATTTTCTTTAAAAGTTCTCTTTTTATTCTTGATTTTGGTTCGGAGTCACCTAGTGCAG”, the binding signal was 8760 fluorescence intensity (a.u.).

For “CGCCGCCGCCGCCTCTCCCATCGCTTCCACCTCCGAGGGCCGGAGTCACCTAGTGCAG”, the binding signal is 8230 fluorescence intensity (a.u.).

Take “GGGCGATGTGTCAAGTCTTTTGGAATTTTTTTACAATTATCGGAGTCACCTAGTGCAG”: the binding signal is 8380 fluorescence intensity (a.u.).

With “AGGTCTACTGGCTCAGCTCGCATATCTACTTGTCTCTTCTCGGAGTCACCTAGTGCAG”, the binding signal is 10200 fluorescence intensity (a.u.).

As for “AGGTGCCACTCTTTTTCCCCATTGTGAGCCAACAGCTATACGGAGTCACCTAGTGCAG”, the binding signal is 8600 fluorescence intensity (a.u.).

On to “TGGCAATTAATTAATCACGCGGTCTTAATATATACTCCCGCGGAGTCACCTAGTGCAG”, for which the binding signal is 8180 fluorescence intensity (a.u.).

“GATCATACACGATTGTACATGCATAACGTTATCATATATTCGGAGTCACCTAGTGCAG”: the binding signal was 10300 fluorescence intensity (a.u.).

As for “TTCCCAACTCAACTCTCTCGTTTTTCGCGCGTACGCTTAACGGAGTCACCTAGTGCAG”, the binding signal is 8260 fluorescence intensity (a.u.).

In the case of “ATTTTTCTTTTGCTAAAACTTATAAGATTCTTCTATCTACCGGAGTCACCTAGTGCAG”, the binding signal is 9390 fluorescence intensity (a.u.).

For the sequence “ATTTGCGCCCTGACGGATATCTTTCAGTTTGTAACCACCGCGGAGTCACCTAGTGCAG”, the binding signal was 9580 fluorescence intensity (a.u.).

Take “CTATAGCTACCCTAACCTTGGCTCTTTGCTTGCTCCAATTCGGAGTCACCTAGTGCAG”: the binding signal was 8780 fluorescence intensity (a.u.).

On to “CCCACTGCCCACGCCAAATTCACCTCTCCAAACTGCAAACCGGAGTCACCTAGTGCAG”, for which the binding signal is 8980 fluorescence intensity (a.u.).

Regarding “AAAAAAAAGGTCACCGGTTCTATGGTTTGTATCGGCTTTCCGGAGTCACCTAGTGCAG”, the binding signal was 9500 fluorescence intensity (a.u.).

As for “TTTTTGTTGCTTTCCGAAAGAGAGATAATTTGACCGGTCACGGAGTCACCTAGTGCAG”, the binding signal was 8040 fluorescence intensity (a.u.).

“GATTTACTTTTTTAAAATTTTAATCTTGTGTTGGTTTAGCCGGAGTCACCTAGTGCAG”: the binding signal was 13100 fluorescence intensity (a.u.).

On to “AAAGCCTCGCCGCCATCTCTCTCCACCACCCAAAATTTCTCGGAGTCACCTAGTGCAG”, for which the binding signal is 8590 fluorescence intensity (a.u.).

For the sequence “CTCTTTGGCTGGTGCAAGTGTCATGCATTTTATTCACTAGCGGAGTCACCTAGTGCAG”, the binding signal was 8530 fluorescence intensity (a.u.).

Turning to “ATCATATGAACACGTTATCTTTTTATTTTATACCGGTTCACGGAGTCACCTAGTGCAG”, the binding signal is 8840 fluorescence intensity (a.u.).

For “TTGAGTTCCCTTCACTTGACTTCCCTAGGTTATGTTCTTTCGGAGTCACCTAGTGCAG”, the binding signal is 8240 fluorescence intensity (a.u.).

As for “GTGTAGTATTCCTTCCGTTGTAGTACTATGTTTGTTTTTTCGGAGTCACCTAGTGCAG”, the binding signal is 14000 fluorescence intensity (a.u.).

Regarding “CATTTCCTTTTTTTGTTACTTTTTATACAAGTTTTATTTTCGGAGTCACCTAGTGCAG”, the binding signal was 8870 fluorescence intensity (a.u.).

In the case of “GTATCGTCCTGTTGAACCGGAAACTCATCCACCGTGGACTCGGAGTCACCTAGTGCAG”, the binding signal is 9400 fluorescence intensity (a.u.).

“GTGGTCTTCATTGTACATATCAAGATTTCTTGTTTTTGCTCGGAGTCACCTAGTGCAG”: the binding signal was 11100 fluorescence intensity (a.u.).

Take “TCGATCCTTATTTGTGCTGTCGTGAGAGGAGAGGGGAGGGCGGAGTCACCTAGTGCAG”: the binding signal was 10400 fluorescence intensity (a.u.).

As for “TACGGCTTTCTCTGCCTTAACTCTTGAGTTGACCGTTGTCCGGAGTCACCTAGTGCAG”, the binding signal was 10700 fluorescence intensity (a.u.).

With “CTCGGATCTTCACGAACACATTCACATCTTCCGCTAAGTTCGGAGTCACCTAGTGCAG”, the binding signal is 9940 fluorescence intensity (a.u.).

For “ACCTGTGCTTGATGGGATGGAAGCTTGGATTAGGTTGGTTCGGAGTCACCTAGTGCAG”, the binding signal is 8560 fluorescence intensity (a.u.).

As to “TCTAATGTTTTCTCAGCCAGTTTTTTCCTGTTACACGTTTCGGAGTCACCTAGTGCAG”, the binding signal was 12700 fluorescence intensity (a.u.).

Turning to “AGATATTTCCCATCTCTCTCTTGTACAAATATATTTTGCCCGGAGTCACCTAGTGCAG”, the binding signal is 9330 fluorescence intensity (a.u.).

For the sequence “GACAGGCGCACGCCCTCGTCGACGCCCAACCTCCCCAAGTCGGAGTCACCTAGTGCAG”, the binding signal was 8320 fluorescence intensity (a.u.).

In the case of “ATTCATGGCCTCTTTCTGCCAAGCCGCATATGGAGTTTTTCGGAGTCACCTAGTGCAG”, the binding signal is 9920 fluorescence intensity (a.u.).

Turning to “CCTGATAATTTTTGTTCTAGATTCACCATTTTACCGTTATCGGAGTCACCTAGTGCAG”, the binding signal was 8420 fluorescence intensity (a.u.).

On to “GCCACCTTTCCGTTTCCGCCTTGCCATCACCATGGTCGTCCGGAGTCACCTAGTGCAG”, for which the binding signal is 10700 fluorescence intensity (a.u.).

On to “TCCACTCCCAGCCTGATTACAGCGCTACCCATTACTTTTCCGGAGTCACCTAGTGCAG”, for which the binding signal is 11600 fluorescence intensity (a.u.).

Turning to “CATCGAATCTCGCACCGCCACTGGAACTTGCCAACCCGAGCGGAGTCACCTAGTGCAG”, the binding signal is 8560 fluorescence intensity (a.u.).

Consider “TGAGATTGTCTGTTGGGAGGTCGTTTGTTTTTTTTTTCCTCGGAGTCACCTAGTGCAG”, for which the binding signal was 12800 fluorescence intensity (a.u.).

Consider “CTTCCCGCTATTTGGAGTTTGTTTTTAGCCGCCGTAGTTTCGGAGTCACCTAGTGCAG”, for which the binding signal is 8410 fluorescence intensity (a.u.).

Take “CCACCAACCATGCCTGCCTCACTTTTCTCCGTCATCGATCCGGAGTCACCTAGTGCAG”: the binding signal was 8900 fluorescence intensity (a.u.).

For the origin of these results see article PMC7819943, “Rice protein-binding microarrays: a tool to detect cis-acting elements near promoter regions in rice”.
